The list shows a part of the results.

By UniProt entry, the sequences of proteins in these tests, tags left out.
UniProt Q0JBA9, entry or part of it: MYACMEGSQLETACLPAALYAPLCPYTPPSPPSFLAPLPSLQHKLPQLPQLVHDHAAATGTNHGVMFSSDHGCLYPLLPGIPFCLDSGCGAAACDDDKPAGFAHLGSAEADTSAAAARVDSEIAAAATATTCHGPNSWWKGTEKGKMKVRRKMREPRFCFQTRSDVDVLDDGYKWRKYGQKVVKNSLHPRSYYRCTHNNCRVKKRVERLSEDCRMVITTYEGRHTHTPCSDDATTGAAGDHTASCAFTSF

From PMC7819943, “Rice protein-binding microarrays: a tool to detect cis-acting elements near promoter regions in rice” come the findings set out here.

The target in this assay is OsWRKY34 (Oryza sativa, UniProt Q0JBA9 1-250). The assay is described as follows: protein-binding microarray (RPBM); PBS, 2% BSA, 51.3 ng/ul salmon testes DNA, 50 uM zinc acetate, 200 nM TF, 25 C, 1 h; high values mean tight binding. To be noted: protein: recombinant; tags: N-terminal polyhistidine and DsRed monomer fusion (pET32a); label: CyDye5-dUTP incorporated in the synthesized complementary strand; 3' TTTTT single-stranded linker to array surface; dsDNA, one strand shown. The essentials: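 Binding signal is defined as the fluorescence intensity of each feature in arbitrary units, read on an Axon 4000B scanner. Transcription factors with N-terminal polyhistidine and DsRed fusions came from E. coli BL21-CodonPlus and were purified on Ni–NTA. They were incubated at 200 nM for 1 h at 25 °C on a custom Agilent array that had been made double-stranded with Cy5-dUTP, with 50 µM zinc acetate present, and the array was washed.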
For “ATGAAGAGATTAGTTAGGGATTTGGTTGGATTGGATTGGACGGAGTCACCTAGTGCAG”, the binding signal was 10700 fluorescence intensity (a.u.). For “TTAGTGATCGTTTCCAGTCAAGCCGGCCTCGAATTAATTCCGGAGTCACCTAGTGCAG” the value was 10200 fluorescence intensity (a.u.); for “TACCAACATTGTAGCAACAGATTCATCTCTCTTTTTTTTTCGGAGTCACCTAGTGCAG”, 18100 fluorescence intensity (a.u.); for “AAGTCAAATCACCTCGCTCGCTTTGCTTCGACGAAACTTCCGGAGTCACCTAGTGCAG”, 8920 fluorescence intensity (a.u.). For “CCCCGAGCCCAAGCCTCTAGCTTGGCTCCGCCCAACCCACCGGAGTCACCTAGTGCAG” the value was 8930 fluorescence intensity (a.u.); for “TTTGGTCTGAGATAATTTCTTTTCCATTTCCCCATTCCTTCGGAGTCACCTAGTGCAG”, 8210 fluorescence intensity (a.u.); for “TTTCCTTCGGCCATTGTTCTTACTGAAAGCAATATTTTCTCGGAGTCACCTAGTGCAG”, 8050 fluorescence intensity (a.u.).

“GACATGACCCCTCGATCGTCCGCCACGTGTCGCGCGCCATCGGAGTCACCTAGTGCAG”: the binding signal is 8390 fluorescence intensity (a.u.). For “CTGCTGTGTTGTTTTCCTTTGCTAGATATTGAATCTGCAGCGGAGTCACCTAGTGCAG” the value was 10400 fluorescence intensity (a.u.); for “GCCTTGAGCATCACCGTCCTCAGCATCCTCGCGCTGTCAACGGAGTCACCTAGTGCAG”, 11100 fluorescence intensity (a.u.).

Regarding “AACACGCCCTGATCTACGAAACCATCCATCCGTTCCAAATCGGAGTCACCTAGTGCAG”, the binding signal was 9230 fluorescence intensity (a.u.). For “TCACCTGATCAAGTACGCGTTTTTGGCCCTCAAAAGTATTCGGAGTCACCTAGTGCAG” the value was 8120 fluorescence intensity (a.u.); for “TCGAGTTATTCGTCTTCCATAGCTGCATTGTTGACTCACTCGGAGTCACCTAGTGCAG”, 11000 fluorescence intensity (a.u.); for “CATGTGCTTCGCGCCCTTTGCTTCATATATACCCCTGGCACGGAGTCACCTAGTGCAG”, 8550 fluorescence intensity (a.u.). Under “TCATATAGTTGCAACGATCTCTTTTAGCTTGTGTTGCACTCGGAGTCACCTAGTGCAG” stands 8200 fluorescence intensity (a.u.). Under “ATATATATATATATCCTATTTCTATAATAAATTTTACTTTCGGAGTCACCTAGTGCAG” stands 8030 fluorescence intensity (a.u.). For the sequence “ATCACGGAGGAGGCGTTCGGGGAGGGAGGGTGGGGCGCGCCGGAGTCACCTAGTGCAG”, the binding signal is 24400 fluorescence intensity (a.u.). Turning to “GTGTGGGTGTGTGTCTAATGTGTAATTGAATAAAAAAAATCGGAGTCACCTAGTGCAG”, the binding signal is 12000 fluorescence intensity (a.u.).

As for “CACCACGTCGCGCGCATGCCCCGTCTCCTCCTATAAAATACGGAGTCACCTAGTGCAG”, the binding signal is 8600 fluorescence intensity (a.u.).

Turning to “TCATATCTGGTTCGCTGTTCTTATGTGAAGTTGCTCTGTCCGGAGTCACCTAGTGCAG”, the binding signal was 10500 fluorescence intensity (a.u.). For “CGCTCGCGGCGCTGACCACCGTGAACCGGTCGATGGCCACCGGAGTCACCTAGTGCAG” the value was 8230 fluorescence intensity (a.u.); for “GCCTCCGTGTCCATTGCAGTGGTGGGTGGTGTTGTGGAGCCGGAGTCACCTAGTGCAG”, 9960 fluorescence intensity (a.u.); for “AATAGTGGTAGGGACGGGATCTTCACGCGAGTATGACAATCGGAGTCACCTAGTGCAG”, 10200 fluorescence intensity (a.u.).

Take “GACCGTATCAGGGACGTATCCTGCTTTTTTTCTTTTTCGGCGGAGTCACCTAGTGCAG”: the binding signal is 11400 fluorescence intensity (a.u.).

For “ATTATGTGATGCTCACTGTCTATATGCTATTCCTGCTGTACGGAGTCACCTAGTGCAG”, the binding signal is 8070 fluorescence intensity (a.u.). Under “AACGTACTAGGGCTACAGTATCTTTTTACACGCATCCGGTCGGAGTCACCTAGTGCAG” stands 8210 fluorescence intensity (a.u.); under “TAGGGTGCTGTACATTCCTTCAGTTGTTGGTACTGTCGACCGGAGTCACCTAGTGCAG”, 9040 fluorescence intensity (a.u.); under “ACTGTTCCTCGACCCCGAGCTCACGGCCTCAATGGCGTCCCGGAGTCACCTAGTGCAG”, 8110 fluorescence intensity (a.u.).

“TTAATTAAGCAGGCGAATTCTTGTTTTTTTTTCTCTTCTACGGAGTCACCTAGTGCAG”: the binding signal was 8290 fluorescence intensity (a.u.).

For the sequence “TGCTCGCGCCTTTCTTGCTTGTCTGCGCCGTCCGCGGCCGCGGAGTCACCTAGTGCAG”, the binding signal is 14900 fluorescence intensity (a.u.).

For the sequence “TAACCCGGTTCTTCTACTACTACTAATCTACCTCAATTCCCGGAGTCACCTAGTGCAG”, the binding signal was 8480 fluorescence intensity (a.u.).

On to “CACTGGTTATTTTGGGGTAGAGGGAGTTTTTTTTAAAGAACGGAGTCACCTAGTGCAG”, for which the binding signal is 14400 fluorescence intensity (a.u.).

As to “CTACGATCAGAAACAGCGGGGCGGGTTGGGAGGGAGTCCACGGAGTCACCTAGTGCAG”, the binding signal was 15800 fluorescence intensity (a.u.).

As to “GAGATCCTTATCCTCTCGCTCTCACGGTCTCTCTCCCATTCGGAGTCACCTAGTGCAG”, the binding signal is 9390 fluorescence intensity (a.u.). Under “GGCTTAATTTAGTTTTCGTTGTTTCCGCTCAAACAAATCCCGGAGTCACCTAGTGCAG” stands 8380 fluorescence intensity (a.u.); under “TCGCATCTGAACTTGTCGCTCATTGGAATATTAATCATGTCGGAGTCACCTAGTGCAG”, 9950 fluorescence intensity (a.u.); under “CTTGTGCCGCTGCAGTCTGTAGGTCTCCTAAAATTCCTTCCGGAGTCACCTAGTGCAG”, 8330 fluorescence intensity (a.u.). In the case of “GGTGGTGGTGGTGGTGGAGTGCGGCGGCGGGGATAGCCGCCGGAGTCACCTAGTGCAG”, the binding signal is 11500 fluorescence intensity (a.u.). Consider “TTTGCAATATCAGGGGTGTGTTACATATGTATTTCGATTTCGGAGTCACCTAGTGCAG”, for which the binding signal was 12400 fluorescence intensity (a.u.). Regarding “TATTTGTGTTCAAACCCTTCCCACCGGTTTTAATTACTTACGGAGTCACCTAGTGCAG”, the binding signal was 9820 fluorescence intensity (a.u.).

Consider “TGCAGTTTTTCTGAGATGTCTTCTAGGCATGTTCTGTTGTCGGAGTCACCTAGTGCAG”, for which the binding signal is 8140 fluorescence intensity (a.u.). For “TCCTCGCGACCTTAATTTACTCCTCCAATGGCCGCCGCTGCGGAGTCACCTAGTGCAG” the value was 8600 fluorescence intensity (a.u.).

Turning to “AGGACCAAGTCAAACCAGCCACATCACTGTCACGTCAGCCCGGAGTCACCTAGTGCAG”, the binding signal was 9310 fluorescence intensity (a.u.). For “GCAAGTACTTGGTGGTATATGTTGTTTGGAATAAAAAGGTCGGAGTCACCTAGTGCAG” the value was 8320 fluorescence intensity (a.u.); for “CATACGCCTCGTCGAGTTGTCATCTTGTATTCCTATCAAACGGAGTCACCTAGTGCAG”, 11500 fluorescence intensity (a.u.); for “AGCGCAACCATGACTTTTCCTGTTCAACTTTAATCATTCACGGAGTCACCTAGTGCAG”, 8120 fluorescence intensity (a.u.). For “CTATCATCTAGTCCATGCTTCCACTATATAATTTCAATTCCGGAGTCACCTAGTGCAG” the value was 9120 fluorescence intensity (a.u.); for “AGCACAGCTCAGGTCCTAGCATCTCTTCACATGGCCAACACGGAGTCACCTAGTGCAG”, 8850 fluorescence intensity (a.u.); for “GTTCCTTTCTTGCGGACCAATTCCGACTGCCGACGAGCGACGGAGTCACCTAGTGCAG”, 9410 fluorescence intensity (a.u.).

“GGTTGCCGTGCTTGGGGATGGGGAGGGTGAAATCACGTGCCGGAGTCACCTAGTGCAG”: the binding signal is 13400 fluorescence intensity (a.u.). For “TTTTCACTGGTTGCTTCTTGAAAGTATTTGTCGAGTAGTACGGAGTCACCTAGTGCAG” the value was 8070 fluorescence intensity (a.u.); for “TCTTGATTCAAAGGAGCACATCATCTCAGTACTACTCATCCGGAGTCACCTAGTGCAG”, 8200 fluorescence intensity (a.u.). Under “CCTTTGTTTATACCTAATTACTAGAATTACTGTCGTGCACCGGAGTCACCTAGTGCAG” stands 8990 fluorescence intensity (a.u.); under “TAACACTTTTCTAATTTATTGACACCGTATTCTTTCTGTTCGGAGTCACCTAGTGCAG”, 8860 fluorescence intensity (a.u.).
